Results published in patent US20220074941A1, “HSP90 COMBINATION THERAPY” (Sloan-Kettering Institute for Cancer Research, priority 2011, published 2022).

Key:
[1] = system: Hsp90 complexes in K562 cell extract; assay: Nano-LC-MS/MS of PU-beads pull-downs; format: binding; settings: for Number of Assigned Spectra, K562 Prep 1 / Number of Assigned Spectra, K562 Prep 2: protein identified in PU-beads pull-down of K562 extract, QSTAR-Elite QTof MS; for Matched Peptides by Fraction JA02: Run1, gel size cut 150-200; for Matched Peptides by Fraction JA09: Run2, gel size cut 150-200; for MAXIMUM matched peptides: maximum over fractions JA01-JA14; for Total fmol: protein isolated in PU-beads pull-downs, Waters Xevo QTof MS; for Matched Peptides by Fraction JA06: Run1, gel size cut 40-60; for Matched Peptides by Fraction JA13: Run2, gel size cut 40-60; for Matched Peptides by Fraction JA03: Run1, gel size cut 110-150; for Matched Peptides by Fraction JA10: Run2, gel size cut 110-150; for Matched Peptides by Fraction JA01: Run1, gel size cut >200; for Matched Peptides by Fraction JA08: Run2, gel size cut >200; for Matched Peptides by Fraction JA14: Run2, gel size cut <40; for Matched Peptides by Fraction JA12: Run2, gel size cut 60-80; for Matched Peptides by Fraction JA04: Run1, gel size cut 80-110; for Matched Peptides by Fraction JA11: Run2, gel size cut 80-110; for Matched Peptides by Fraction JA05: Run1, gel size cut 60-80
Protocol: Protein cargo isolated from cell lysate with PU-beads or control-beads was subjected to proteomic analysis by nano liquid chromatography coupled to tandem mass spectrometry (nano LC-MS/MS). Initial protein identification was performed using the Mascot search engine, and was further evaluated using Scaffold Proteome Software (Tables 5a-d).
(§1) Lysates prepared as mentioned above were first pre-cleaned by incubation with control beads overnight at 4° C. […] Beads were washed with lysis buffer, proteins eluted by boiling in 2% SDS, separated on a denaturing gel and Coomassie stained according to manufacturer's procedure (Biorad). […] Analyses of the batch purified pools were done using a QSTAR-Elite hybrid quadrupole time-of-flight mass spectrometer (QTof MS) (AB/MDS Sciex), equipped with a nano spray ion source. Peptide mixtures (in 20 μL) are loaded onto a trapping guard column (0.3×5-mm PepMap C18 100 cartridge from LC Packings) using an Eksigent nano MDLC system (Eksigent Technologies, Inc) at a flow rate of 20 μL/min. […] Electrospray ionization (ESI) needle voltage was set at about 1800 V. The mass analyzer is operated in automatic, data-dependent MS/MS acquisition mode, with the threshold set to 10 counts per second of doubly or triply charged precursor ions selected for fragmentation scans. Survey scans of 0.25 sec are recorded from 400 to 1800 amu; up to 3 MS/MS scans are then collected sequentially for the selected precursor ions, recording from 100 to 1800 amu. The collision energy is automatically adjusted in accordance with the m/z value of the precursor ions selected for MS/MS. Selected precursor ions are excluded from repeated selection for 60 sec after the end of the corresponding fragmentation duty cycle. […] One missed tryptic cleavage site was allowed, precursor ion mass tolerance=0.4 Da fragment ion mass tolerance=0.4 Da, protein modifications were allowed for Met-oxide, Cys-acrylamide and N-terminal acetylation. MudPit scoring was typically applied with ‘require bold red’ activated, and using significance threshold score p<0.05. Unique peptide counts (or ‘spectral counts’) and percent sequence coverages for all identified proteins were exported to Scaffold Proteome Software (version 2_06_01, www.proteomesoftware.com) for further bioinformatic analysis (Table 5a). Using output from Mascot, Scaffold validates, organizes, and interprets mass spectrometry data, allowing more easily to manage large amounts of data, to compare samples, and to search for protein modifications.

[2] = system: Hsp90 complexes in Mia-PaCa-2 cell extract; assay: Nano-LC-MS/MS of PU-beads pull-downs; format: binding, human; settings: protein identified in PU-beads pull-down of Mia-Paca 2 extract; QSTAR-Elite QTof MS
Protocol: as §1

Row | Substance | Number of Assigned Spectra, K562 Prep 1 [1] | Number of Assigned Spectra, K562 Prep 2 [1] | Number of Assigned Spectra, Mia-Paca 2 [2] | MAXIMUM matched peptides ([1]; PU-beads pull-down) | Total fmol [1] [fmol] | further results
1 | ABL1 | 3 | 4 | 0 |  |  | 
2 | AKAP8 | 4 | 0 | 0 |  |  | 
3 | ARAF | 2 | 0 | 1 |  |  | 
4 | ATG2A | 2 | 3 | 0 |  |  | 
5 | ATM | 2 | 4 | 1 |  |  | 
6 | ATR | 5 | 0 | 3 |  |  | 
7 | BUB1B | 3 | 1 | 0 |  |  | 
8 | CDK9 | 3 | 0 | 1 |  |  | 
9 | CDK12 | 0 | 0 | 3 |  |  | 
10 | CSNK2B | 1 | 0 | 1 |  |  | 
11 | CTSZ | 1 | 0 | 0 |  |  | 
12 | DOCK2 | 2 | 3 | 1 |  |  | 
13 | DOCK7 | 2 | 0 | 0 |  |  | 
14 | DOCK11 | 0 | 0 | 1 |  |  | 
15 | FBXO22 | 0 | 0 | 3 |  |  | 
16 | Mitogen-activated protein kinase kinase kinase 4; MEKK4 |  |  |  | 11 | 4.3965 | Matched Peptides by Fraction JA02 ([1]; PU-beads pull-down): 6; Matched Peptides by Fraction JA09 ([1]; PU-beads pull-down): 11
17 | Mitotic checkpoint protein BUB3 |  |  |  | 10 | 12.0013 | Matched Peptides by Fraction JA06 ([1]; PU-beads pull-down): 8; Matched Peptides by Fraction JA13 ([1]; PU-beads pull-down): 10
18 | Phosphatidylinositol 4-kinase alpha |  |  |  | 18 | 5.5247 | Matched Peptides by Fraction JA02 ([1]; PU-beads pull-down): 12; Matched Peptides by Fraction JA09 ([1]; PU-beads pull-down): 18
19 | Phosphoinositide 3-kinase regulatory subunit 4 |  |  |  | 14 | 6.7192 | Matched Peptides by Fraction JA03 ([1]; PU-beads pull-down): 13; Matched Peptides by Fraction JA10 ([1]; PU-beads pull-down): 14
20 | Probable E3 ubiquitin-protein ligase makorin-2 |  |  |  | 12 | 7.3243 | Matched Peptides by Fraction JA06 ([1]; PU-beads pull-down): 11; Matched Peptides by Fraction JA13 ([1]; PU-beads pull-down): 12
21 | Probable cytosolic iron-sulfur protein assembly protein CIAO1 |  |  |  | 13 | 15.5890 | Matched Peptides by Fraction JA06 ([1]; PU-beads pull-down): 8; Matched Peptides by Fraction JA13 ([1]; PU-beads pull-down): 13
22 | Protein ALO17 |  |  |  | 34 | 9.9440 | Matched Peptides by Fraction JA01 ([1]; PU-beads pull-down): 22; Matched Peptides by Fraction JA08 ([1]; PU-beads pull-down): 34

Row | Substance | Number of Assigned Spectra, K562 Prep 1 [1] | Number of Assigned Spectra, K562 Prep 2 [1] | Number of Assigned Spectra, Mia-Paca 2 [2] | MAXIMUM matched peptides ([1]; PU-beads pull-down) | Total fmol [1] [fmol] | further results
23 | Protein KIAA1967 p30 DBC |  |  |  | 26 | 22.1394 | Matched Peptides by Fraction JA03 ([1]; PU-beads pull-down): 19; Matched Peptides by Fraction JA10 ([1]; PU-beads pull-down): 26
24 | Protein SET |  |  |  | 9 | 21.0046 | Matched Peptides by Fraction JA06 ([1]; PU-beads pull-down): 7; Matched Peptides by Fraction JA13 ([1]; PU-beads pull-down): 9
25 | Protein-tyrosine kinase 2-beta; FAK-2 |  |  |  | 4 | 1.3365 | Matched Peptides by Fraction JA03 ([1]; PU-beads pull-down): 4
26 | Proto-oncogene serine/threonine-protein kinase pim-1 |  |  |  | 4 | 0.6796 | Matched Peptides by Fraction JA14 ([1]; PU-beads pull-down): 4
27 | Regulator of differentiation 1′ ROD1 |  |  |  | 13 | 0.5622 | Matched Peptides by Fraction JA12 ([1]; PU-beads pull-down): 13
28 | Regulatory-associated protein of mTOR; RAPTOR |  |  |  | 14 | 4.8217 | Matched Peptides by Fraction JA03 ([1]; PU-beads pull-down): 13; Matched Peptides by Fraction JA10 ([1]; PU-beads pull-down): 14
29 | Ribosomal protein S6 kinase alpha-3; RSK2 |  |  |  | 20 | 11.9267 | Matched Peptides by Fraction JA04 ([1]; PU-beads pull-down): 20; Matched Peptides by Fraction JA11 ([1]; PU-beads pull-down): 15
30 | Serine-threonine kinase receptor-associated protein; STRAP |  |  |  | 16 | 9.5433 | Matched Peptides by Fraction JA06 ([1]; PU-beads pull-down): 16; Matched Peptides by Fraction JA13 ([1]; PU-beads pull-down): 10
31 | Serine/threonine-protein kinase ATR |  |  |  | 10 | 1.0124 | Matched Peptides by Fraction JA01 ([1]; PU-beads pull-down): 10
32 | Serine/threonine-protein kinase TBK1 |  |  |  | 16 | 5.3258 | Matched Peptides by Fraction JA04 ([1]; PU-beads pull-down): 9; Matched Peptides by Fraction JA11 ([1]; PU-beads pull-down): 16
33 | Serine/threonine-protein kinase mTOR |  |  |  | 48 | 16.4969 | Matched Peptides by Fraction JA02 ([1]; PU-beads pull-down): 18; Matched Peptides by Fraction JA01 ([1]; PU-beads pull-down): 22; Matched Peptides by Fraction JA09 ([1]; PU-beads pull-down): 16; Matched Peptides by Fraction JA08 ([1]; PU-beads pull-down): 48
34 | Serine/threonine-protein phosphatase 2A 65 kDa regulatory subunit A alpha isoform |  |  |  | 78 | 125.6820 | Matched Peptides by Fraction JA05 ([1]; PU-beads pull-down): 78; Matched Peptides by Fraction JA13 ([1]; PU-beads pull-down): 11; Matched Peptides by Fraction JA12 ([1]; PU-beads pull-down): 76
35 | Serine/threonine-protein phosphatase 2A catalytic subunit alpha isoform |  |  |  | 20 | 63.3310 | Matched Peptides by Fraction JA07 ([1]; PU-beads pull-down, Run1, gel size cut <40): 20; Matched Peptides by Fraction JA14 ([1]; PU-beads pull-down): 16
36 | Signal transducer and activator of transcription 3 |  |  |  | 24 | 15.8176 | Matched Peptides by Fraction JA04 ([1]; PU-beads pull-down): 22; Matched Peptides by Fraction JA11 ([1]; PU-beads pull-down): 24
37 | Signal transducer and activator of transcription 5B |  |  |  | 64 | 21.2998 | Matched Peptides by Fraction JA04 ([1]; PU-beads pull-down): 64; Matched Peptides by Fraction JA11 ([1]; PU-beads pull-down): 62
38 | Stress-70 protein; GRP75 |  |  |  | 41 | 31.2908 | Matched Peptides by Fraction JA05 ([1]; PU-beads pull-down): 41; Matched Peptides by Fraction JA12 ([1]; PU-beads pull-down): 38
39 | Stress-induced-phosphoprotein 1; HOP |  |  |  | 72 | 129.2074 | Matched Peptides by Fraction JA05 ([1]; PU-beads pull-down): 68; Matched Peptides by Fraction JA12 ([1]; PU-beads pull-down): 72
40 | Talin-1; TLN-1 |  |  |  | 25 | 3.1856 | Matched Peptides by Fraction JA01 ([1]; PU-beads pull-down): 19; Matched Peptides by Fraction JA08 ([1]; PU-beads pull-down): 25
41 | Transducin-like enhancer protein 3; TLE3 |  |  |  | 13 | 3.7256 | Matched Peptides by Fraction JA11 ([1]; PU-beads pull-down): 13
42 | Tyrosine-protein phosphatase non-receptor type 1; PTPN1 |  |  |  | 9 | 3.5169 | Matched Peptides by Fraction JA06 ([1]; PU-beads pull-down): 9
43 | Tyrosine-protein phosphatase non-receptor type 23; PTPN23 |  |  |  | 13 | 5.6692 | Matched Peptides by Fraction JA02 ([1]; PU-beads pull-down): 10; Matched Peptides by Fraction JA09 ([1]; PU-beads pull-down): 13
44 | Vinculin |  |  |  | 46 | 17.7700 | Matched Peptides by Fraction JA03 ([1]; PU-beads pull-down): 35; Matched Peptides by Fraction JA10 ([1]; PU-beads pull-down): 46
